The text below walks through data of PubChem BioAssay AID2685 (National Center for Advancing Translational Sciences (NCATS), 2010).

The structures appear in SMILES notation. The list shows a part of the results. Further columns of the screen follow, without active or inactive calls. Compounds called inactive in the main read-out are mostly missing here. Words in brackets tell the shape of the fitted curve; partial curves, single points and poor fits give uncertain potencies.

This test can be described thus: qHTS Assay for Lipid Storage Modulators in Drosophila S3 Cells.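 For cell number change: cells counted by Cell Tracker Red CMTPX staining in the red channel.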 Particulars: BODIPY lipid droplet fluorescence, 18-24 h; for cell number change: measured here: cell count max response, cells fed with added oleic acid. The method in brief: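 Drosophila S3 cells loaded with oleic acid (400 uM, as added) and compounds at several concentrations; lipid droplets imaged by 488-nm laser-scanning cytometry, 500–530 nm intensity and object ratio to cell channel. Percent activity normalized to 20 uM Triacsin C.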

The mark [1] stands for this setting: measured here: cell number channel AC50, cells fed with added oleic acid.
[2] abbreviates: measured here: lipid fluorescence (Fed channel) AC50, cells fed with added oleic acid.

`Cc1ccsc1C(=O)N1CC=C(c2ccccc2)CC1`: the AC50 – broadly, the concentration giving half of the maximal activity seen – under setting [1] is 6.51 µM [rising, single point].

Consider `COc1ccc(N2CCN(C(=O)COC(=O)CCOc3ccccc3C)CC2)cc1`, for which the cell number change came out at 10.2%. Moreover, the concentration at half-maximal activity (AC50) under setting [2] is 0.291 µM [falling, single point].

For `COc1ccc(NC(C)=O)cc1NC(=O)CN1CCN(C2c3ccccc3-c3ccccc32)CC1`, the cell number change was -35.4%. The half-maximal activity concentration (AC50) under setting [1] is 3.26 µM [falling, partial curve]. Moreover, under setting [2], the AC50 was 16.4 µM [falling, single point]. Consider `CSc1cccc(NC(=O)COc2ccccc2)c1`, for which the cell number change turned out to be 35.9%. For the same compound, the AC50 under setting [1] was 10.3 µM [rising, single point]. In the case of `COc1ccc(-c2csc(NC(=O)CN3C(=O)C4CCCCC4C3=O)n2)cc1OC` (centres undefined), the cell number change worked out at 1.53%. Also, the AC50 under setting [1] is 7.31 µM [rising, single point].

Take `COc1ccc(NC(=O)COc2ccccc2C)cc1S(=O)(=O)N1CCCCC1`: the concentration at half-maximal activity (AC50) under setting [1] is 3.66 µM [rising, partial curve]. On to `CCOC(=O)CSc1nc(-c2cccs2)nc2c1c(=O)n(C)c(=O)n2C`, for which the cell number change was 17.3%. Moreover, the concentration at half-maximal activity (AC50) under setting [2] is 6.51 µM [falling, single point]. Turning to `Cc1cc(C)nc(SCCn2c(N3CCCCC3)nc3c2c(=O)n(C)c(=O)n3C)n1`, the cell number change was determined as 16.6%. Also, the half-maximal activity concentration (AC50) under setting [2] is 6.51 µM [rising, single point]. For `CC1(c2ccccc2)CC(C)(C)N(C(=O)C2CCCO2)c2ccccc21` (centres undefined), the cell number change amounted to 135%. The concentration at half-maximal activity (AC50) under setting [1] was 16.4 µM [rising, partial curve]. Besides, the AC50 under setting [2] was 6.51 µM [rising, partial curve, poor fit]. For `CC1(c2ccccc2)CC(C)(C)N(C(N)=O)c2ccccc21` (centres undefined), the cell number change was -14.8%. Take `Cc1noc(C)c1COc1ccccc1C(=O)NNC(=O)c1ccccc1F`: the cell number change is -2.48%. Also, the AC50 under setting [2] was 0.206 µM [rising, full curve, poor fit]. `O=C(COC(=O)c1cccnc1Cl)NCc1ccco1`: the cell number change was -43.3%. Also, under setting [1], the half-maximal activity concentration (AC50) is 0.164 µM [falling, full curve]. Take `CCC(C)(C)NC(=O)CN(C(=O)C(=O)Nc1ccc2c(c1)OCCO2)C(C)(C)CC`: the cell number change was -9.26%. For the same compound, the half-maximal activity concentration (AC50) under setting [2] was 6.51 µM [falling, single point]. Regarding `CCc1nnc(NC(=O)CSc2nnc(-c3cc4ccccc4cc3O)n2CC)s1`, the cell number change was -9.65%. Also, the half-maximal activity concentration (AC50) under setting [1] was 0.0164 µM [rising, full curve, poor fit].

Turning to `Cc1nn(CC(=O)Nc2ccc(Cl)c(S(=O)(=O)N(C)C)c2)c(C)c1[N+](=O)[O-]`, the half-maximal activity concentration (AC50) under setting [2] was 1.64 µM [falling, partial curve]. `CC1CCCC(C)N1C(=O)COC(=O)Cc1ccc(F)cc1` (centres undefined): the cell number change is 3.6%. Same read-out and setting: the same measure for `C=C[C@]1(C)C[C@H]1[C@H](NP(=O)(c1ccccc1)c1ccccc1)c1ccccc1`: -10.7%.

For the compound `COc1ccccc1OCC(=O)Nc1ccc(S(=O)(=O)N2CCOCC2)cc1`, the cell number change is -23.7%. Under setting [2], the AC50 was 5.62 µM [rising, single point]. As for `CC1(C)Oc2ccc(C(=O)NN)cc2NC1=O`, the cell number change was -12.1%. Further, under setting [2], the AC50 is 1.64 µM [falling, partial curve, poor fit]. As for `O=S(=O)([O-])C(c1ccccc1)[n+]1ccccc1` (centres undefined), the cell number change turned out to be 10.2%. Under setting [2], the AC50 was 13 µM [rising, partial curve, poor fit]. For the compound `Cc1cc(C)cc(NC(=O)Nc2c(Br)cnn2C)c1`, the cell number change stood at 0.477%. Further, the AC50 under setting [2] is 0.82 µM [falling, full curve, poor fit]. Regarding `O=C(NC1CC(=O)c2sccc21)c1cccc(C(F)(F)F)c1` (centres undefined), the cell number change is 31.3%. Besides, the concentration at half-maximal activity (AC50) under setting [1] was 35.5 µM [rising, single point]. Besides, under setting [2], the AC50 was 17.8 µM [rising, single point]. As for `COc1cccc(/C=C/C(=O)OCC(=O)Nc2cccc(S(=O)(=O)N3CCOCC3)c2)c1OC`, the cell number change was 47.6%. Under setting [2], the AC50 was 18.4 µM [rising, single point]. With `OCc1cn(-c2ccccc2)nc1-c1ccco1`, the cell number change was determined as 102%. In addition, under setting [1], the concentration at half-maximal activity (AC50) is 29.1 µM [rising, single point]. Further, the AC50 under setting [2] was 0.731 µM [rising, partial curve, poor fit]. Take `CCN1C(=NCc2ccco2)N[C@@H](c2cccc(F)c2)C(C(=O)OC)=C1C`: the cell number change turned out to be 15.3%.

Consider `COC(=O)COc1cccc(-n2cnnn2)c1`, for which the cell number change was found to be 2.47%. Besides, the AC50 under setting [2] was 4.11 µM [falling, single point].

Turning to `COc1ccccc1C(=O)NCCSCc1ccccc1Cl`, the cell number change is -22.8%.

Consider `CC(C)(C)c1ccc(-c2cc(N)n[nH]2)cc1`, for which the cell number change was -1.84%. Further, the concentration at half-maximal activity (AC50) under setting [2] is 6.51 µM [rising, partial curve, poor fit]. For the compound `Cc1[nH]c2ccc(-c3nnc(SCC(=O)NCc4ccco4)n3Cc3ccccc3)cc2c1C`, the cell number change was -19.6%. Moreover, under setting [2], the AC50 was 20.6 µM [falling, single point]. Consider `O=[N+]([O-])c1ccc(N/N=C2\CC3CC=CC23)cc1` (centres undefined), for which the cell number change came out at 39.7%. Moreover, under setting [1], the concentration at half-maximal activity (AC50) is 29.1 µM [rising, single point].

As for `COC(=O)c1ccc(NC(=O)Cc2ccc(F)cc2)cc1`, the cell number change worked out at 14.3%. The AC50 under setting [2] is 0.146 µM [rising, full curve, poor fit]. For the compound `c1ccc(-c2nc3ccccc3[nH]2)nc1`, the cell number change is 6.45%. In addition, the half-maximal activity concentration (AC50) under setting [2] was 0.00461 µM [rising, full curve, poor fit].

With `Cc1cccc(N2CCN(C(=O)c3c(-c4ccccc4)noc3C)CC2)c1C`, the cell number change is -4.11%. Moreover, the half-maximal activity concentration (AC50) under setting [2] was 29.1 µM [falling, single point].

As to `O=C(CCn1nc(-c2ccccc2)c2ccccc2c1=O)NCC1CCCO1` (centres undefined), the cell number change was 1.4%.

Consider `Cc1nc(SCC(=O)Nc2nnc(C(C)C)s2)n[nH]1`, for which the cell number change amounted to 21%.

For `Cc1c(C(=O)NCC2CCCO2)oc2c(Cl)cccc12` (centres undefined), under setting [2], the AC50 was 6.51 µM [rising, single point]. Regarding `O=C(NCCO)c1cccc(Nc2nc(-c3ccccc3)c3cc(Cl)ccc3n2)c1`, the cell number change is -23.4%. The half-maximal activity concentration (AC50) under setting [2] is 29.1 µM [falling, single point].

On to `COC(=O)c1cc2ccc(OC)c(OC)c2c(=O)s1`, for which the cell number change was 148%. Besides, the half-maximal activity concentration (AC50) under setting [2] was 2.06 µM [rising, partial curve]. In the case of `COC(=O)c1ccc(COC(=O)CNC(=O)c2ccco2)cc1`, the cell number change is -5.73%. The AC50 under setting [2] was 0.259 µM [falling, partial curve, poor fit].

With `COc1cccc(-c2nc(CS(=O)CC(=O)NC3CC3)c(C)o2)c1` (centres undefined), the cell number change is 12.9%. The AC50 under setting [2] was 4.11 µM [rising, partial curve]. `C=CCn1c(SCC(=O)NCc2ccco2)nnc1-c1ccc2ccccc2n1`: the cell number change was -10.8%. As to `O=C1SC(SC(=Nc2ccccc2)Nc2ccccc2)C(=O)N1c1ccccc1` (centres undefined), the cell number change was -25.7%. Further, under setting [1], the AC50 was 4.11 µM [falling, full curve, poor fit]. Also, the AC50 under setting [2] was 4.11 µM [falling, full curve, poor fit].

Turning to `O=C(O)c1cc2n(n1)C(C(F)(F)F)CC(c1ccco1)N2` (centres undefined), the cell number change is -10.3%. Moreover, under setting [2], the half-maximal activity concentration (AC50) was 29.1 µM [falling, single point]. As to `CCc1cccc2c1NC(=O)[C@]21[C@@H]2C(=O)N(Cc3ccccc3)C(=O)[C@@H]2[C@@H]2CCCN21`, the cell number change turned out to be 8.29%. The AC50 under setting [2] is 20.6 µM [falling, partial curve].

As to `O=C(Nn1c(C2CC2)nc2ccccc2c1=O)c1ccco1`, under setting [2], the half-maximal activity concentration (AC50) is 6.51 µM [falling, single point]. Still for that read-out and setting: to `Cc1[nH]c2ccccc2c1C(=O)CSC(=S)N(C)C` belongs 0.291 µM [rising, partial curve, poor fit]. For `COc1ccc(CNC(=O)C2CCC(=O)N2C(C)C)c(OC)c1` (centres undefined), the cell number change is -12.9%.

Regarding `COc1cccc(NC(=O)CN(C)C(=O)c2ccccc2OCC(=O)Nc2cccc(C(F)(F)F)c2)c1`, the cell number change came out at 32.6%. Besides, under setting [1], the AC50 was 6.51 µM [rising, full curve, poor fit]. In the case of `COc1cc(C)c(CN2CCSCC2)cc1C`, the cell number change is -9.49%. The half-maximal activity concentration (AC50) under setting [2] was 0.58 µM [falling, single point].

With `COc1ccc(NC(=O)c2cc(Br)ccc2Cl)c(OC)c1`, the half-maximal activity concentration (AC50) under setting [2] is 6.51 µM [rising, partial curve]. In the case of `COc1cccc(OC)c1C(=O)Nc1ccc(NC(=O)c2ccco2)cc1`, the cell number change was found to be 10.3%. Also, the AC50 under setting [2] is 6.51 µM [rising, partial curve]. Turning to `CC1CCCN(C(=O)C2(NC(=O)Nc3cccc(F)c3)CCCCC2)C1` (centres undefined), the cell number change was 9.68%. Also, the AC50 under setting [2] is 3.26 µM [rising, full curve]. For `O=[N+]([O-])c1ccc(C(O)C23CN4CN(CN(C4)C2)C3)cc1` (centres undefined), the cell number change stood at 24.9%. Moreover, the AC50 under setting [2] is 32.6 µM [rising, single point]. `CN(C[C@H](c1ccccc1)N(C[C@H](Cc1ccccc1)N(CCc1ccccc1)N=O)N=O)N=O`: the cell number change stood at 11.1%. The AC50 under setting [2] is 7.31 µM [rising, partial curve, poor fit]. In the case of `Cc1csc(SCC(=O)Nc2cccc(C)c2C)n1`, the cell number change is 12%. For the same compound, under setting [2], the AC50 is 2.59 µM [rising, partial curve, poor fit]. With `CC(C)(C)NC(=O)C1CCN(c2ccc(S(=O)(=O)N3CCOCC3)cc2Cl)CC1`, the cell number change was -4.99%. On to `c1ccc(CN2CCN(c3ncnc4c3[nH]c3ccccc34)CC2)cc1`, for which the cell number change is -13.7%. For the same compound, the AC50 under setting [2] is 9.2 µM [rising, partial curve, poor fit]. With `COc1cccc(OCCOCC(O)CN2CCN(Cc3ccc(Cl)cc3)CC2)c1` (centres undefined), the cell number change came out at 2.98%. As to `CCCN1CCC(NC(=O)Nc2ccccc2C(=O)OC)CC1`, the cell number change was -40.5%. Under setting [1], the half-maximal activity concentration (AC50) is 0.206 µM [falling, full curve]. With `O=C(CCc1c[nH]c2ccccc12)N/N=C/c1ccc2c(c1)OCO2`, the cell number change was determined as 32.9%. Moreover, the AC50 under setting [1] is 0.731 µM [falling, single point]. Regarding `COC(=O)CNC(=O)C1CCN(C(=O)OCc2ccccc2)CC1`, the cell number change was -30.1%. The AC50 under setting [1] is 4.11 µM [falling, full curve]. Regarding `CC(=O)Nc1ccc(NC2(C)C(=O)c3ccccc3C2=O)cc1`, the cell number change is -0.286%.

For `CSc1ccccc1C(=O)NCC1CCCO1` (centres undefined), the cell number change is -68.6%. Besides, under setting [1], the concentration at half-maximal activity (AC50) was 14.6 µM [falling, partial curve, poor fit]. `COCCn1c(-c2cc(OC)c(OC)c(OC)c2)nc2nc3ccccc3nc21`: the cell number change is -3.24%. With `CCn1nccc1C(=O)Nc1ccc(Cl)cc1Cl`, under setting [1], the AC50 is 2.59 µM [rising, partial curve].
